# Data reported in PubChem BioAssay AID1117319 (Southern Research Institute, 2015).
# Chains of the proteins cited; added tags and fusions are not shown. Lines headed by an entry give the natural chain unless they say otherwise; changes in a name come on top.
# UniProt P69720: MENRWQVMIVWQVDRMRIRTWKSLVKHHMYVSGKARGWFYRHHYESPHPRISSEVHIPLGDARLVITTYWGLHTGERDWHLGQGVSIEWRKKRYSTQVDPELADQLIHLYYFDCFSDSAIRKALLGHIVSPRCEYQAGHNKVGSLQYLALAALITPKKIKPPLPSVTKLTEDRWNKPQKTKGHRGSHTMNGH
# UniProt P69721: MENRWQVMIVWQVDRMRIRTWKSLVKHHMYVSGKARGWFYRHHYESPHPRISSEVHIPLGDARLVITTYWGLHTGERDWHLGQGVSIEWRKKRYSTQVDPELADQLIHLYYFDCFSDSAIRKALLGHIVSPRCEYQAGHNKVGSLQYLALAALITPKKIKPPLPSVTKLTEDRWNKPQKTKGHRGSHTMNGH
# UniProt P69722: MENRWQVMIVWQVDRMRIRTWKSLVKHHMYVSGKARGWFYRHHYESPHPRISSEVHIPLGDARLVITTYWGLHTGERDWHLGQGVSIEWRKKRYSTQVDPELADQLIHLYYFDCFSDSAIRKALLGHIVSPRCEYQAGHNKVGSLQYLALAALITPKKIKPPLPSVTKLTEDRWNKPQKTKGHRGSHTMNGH
# UniProt P69723: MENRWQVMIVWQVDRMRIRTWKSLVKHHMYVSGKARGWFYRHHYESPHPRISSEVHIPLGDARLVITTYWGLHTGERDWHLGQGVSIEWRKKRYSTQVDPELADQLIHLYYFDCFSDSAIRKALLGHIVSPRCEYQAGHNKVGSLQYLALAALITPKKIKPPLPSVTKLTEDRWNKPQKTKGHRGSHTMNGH
# UniProt Q9HC16: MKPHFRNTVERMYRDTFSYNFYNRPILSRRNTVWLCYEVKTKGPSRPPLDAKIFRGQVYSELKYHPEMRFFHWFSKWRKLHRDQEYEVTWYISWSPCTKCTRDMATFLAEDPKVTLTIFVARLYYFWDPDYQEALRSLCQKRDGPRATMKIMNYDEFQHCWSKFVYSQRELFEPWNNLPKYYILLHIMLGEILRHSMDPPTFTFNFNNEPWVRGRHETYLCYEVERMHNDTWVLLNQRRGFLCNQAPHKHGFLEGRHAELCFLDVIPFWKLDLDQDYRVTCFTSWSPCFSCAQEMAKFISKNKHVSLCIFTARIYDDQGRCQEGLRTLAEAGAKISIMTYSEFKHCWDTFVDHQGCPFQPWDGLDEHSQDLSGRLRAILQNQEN
# Where “and” joins values, the source holds several entries; their conditions need not be identical. Equal values may be shown once. In all, about 260,000 compounds went through this assay and about 1,500 (0.58%) were called active. Inconclusive results, whose numbers are uncertain, are shown with a selection of clear calls.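 How the source made its calls: active means inhibition above a set limit at one or more doses, reproduced on every date tested; inconclusive means results disagree between test dates, or hit never tested in dose response; inactive means the rest.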
# Target: Virion infectivity factor (Human immunodeficiency virus type 1 group M subtype B (isolate BH10)) + Virion infectivity factor (Human immunodeficiency virus type 1 group M subtype B (isolate BRU/LAI)) + Virion infectivity factor (Human immunodeficiency virus type 1 group M subtype B (isolate PCV12)) + Virion infectivity factor (Human immunodeficiency virus type 1 group M subtype B (isolate HXB2)) + DNA dC->dU-editing enzyme APOBEC-3G (Homo sapiens) (UniProt P69720+P69721+P69722+P69723+Q9HC16)
# Assay: inhibitors of Vif binding to APOBEC3G peptide, primary screen, biochemical, TR-FRET, GST-Vif 1-94, biotin-A3G peptide, dose response retest (AID 1117319);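 further: Vif residues 1-94 fused to GST binding biotinylated APOBEC3G peptide 110-148; 0% = full assay without inhibitor and 100% = GST in place of GST-Vif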
# Settings: stronger effect = higher value
row,SMILES,inhibition
1,CC(=O)COc1ccc2c(C)c(C)c(=O)oc2c1,inconclusive: 33.1%
2,O=C(NC1C(=O)NNC1c1ccc(Cl)cc1)c1ccc(F)cc1 (configuration not stated),inconclusive: 38%
3,CC1(C)CC(=O)C2=C(C1)Nc1ccccc1N=C2,inconclusive: 44.3%
4,CCCNC(=O)CC1C(=O)N(Cc2ccccc2)C(C)c2nc3ccccc3n21 (configuration not stated),inconclusive: 33.9%
5,Cc1cccc(C(=O)NCc2nnc(SCc3ccc(F)cc3)n2C)c1,inconclusive: 52.2%
6,CCn1c(C)nc2cc(C(=O)NNC(=S)NC(=O)c3ccc(OC)cc3)ccc21,inconclusive: 40.5%
7,CCCCN(C(=O)NC(=O)Nc1ccccc1OC)S(C)(=O)=O,inconclusive: 33.3%
8,COCCN1C(=O)CC(NNC(=O)c2ccc(S(=O)(=O)N3CCCC3)cc2)C1=O (configuration not stated),inactive: 8%
9,O=C(Nc1ccccc1)Nc1nnc(Cc2ccc([N+](=O)[O-])cc2)s1,inconclusive: 54.1%
10,O=C(O)CC1SC(=Nc2ccccc2)N(c2ccccc2)C1=O (configuration not stated),inconclusive: 50.6%
11,CCOC(=O)N1CCN(CC(O)COCCC23CC4CC(CC(C4)C2)C3)CC1 (configuration not stated),inactive: 13.8%
12,CSC1=C(C#N)C(c2sccc2C)CC(=O)N1 (configuration not stated),inactive: -3.4%
13,Cc1ccc(S(=O)(=O)c2c(N)n(Cc3ccco3)c3nc4ccccc4nc23)cc1,inactive: 2.43% and inconclusive: 48.1%
14,CCOc1ccc2c(c1)C(C)=CC(C)(C)N2C(=O)Nc1ccccc1,inconclusive: 62%
15,Cc1ccc2nc(C(=O)O)c(C(=O)O)nc2c1,inconclusive: 49.7%
16,Cn1c2c(c(=O)n(C)c1=O)CN(CCCN1CCOCC1)CN2,inconclusive: 52.4%
17,Cc1cc(C(F)(F)F)n(-c2nc(C(=O)N/N=C/c3ccc(F)cc3)cs2)n1,inconclusive: 45.4%
18,O=C(N/N=C/C=C/c1ccccc1)c1cccnc1,inactive: -6.59%
19,O=C(Nc1ccc(N2CCN(C(=O)c3ccccc3F)CC2)cc1)c1ncn[nH]1,inconclusive: 44.5%

# Given bar-delimited: part of the list above.
row | SMILES | inhibition
13 | Cc1ccc(S(=O)(=O)c2c(N)n(Cc3ccco3)c3nc4ccccc4nc23)cc1 | inactive: 2.43% and inconclusive: 48.1%
14 | CCOc1ccc2c(c1)C(C)=CC(C)(C)N2C(=O)Nc1ccccc1 | inconclusive: 62%

# (cont.)

row,SMILES,inhibition
1,O=C(c1ccc(-c2ccccc2)c(F)c1)C1CCCN(CCCn2cccn2)C1 (configuration not stated),inconclusive: 63.1%
2,Oc1c(I)cc(Cl)c2cccnc12,inconclusive: 49.3%
3,Cc1cc(O)c(/C=N/c2ccccn2)c(=O)o1,inconclusive: 46.6%
4,CN=C(C)/C(C(=O)OC)=C(/O)c1ccc(Cl)cc1Cl,inconclusive: 64.5%
5,O=C(C1CCCO1)N1CCN(C(=S)Nc2ccccc2Cl)CC1 (configuration not stated),inconclusive: 45.8%
6,O=c1[nH]c(SCc2cccc(Cl)c2)nc2ccccc12,inconclusive: 57.8%
7,COc1ccc(S(=O)(=O)N2C3CCC2CC(NC(=O)NC2CCCCC2)C3)cc1 (configuration not stated),inconclusive: 60.3%
8,COCCNc1nc(N)c([N+](=O)[O-])c(NCC2CCCO2)n1 (configuration not stated),inconclusive: 37.3%
9,Cc1cccc(OCCCN2C(=O)C(=O)c3cc(C)ccc32)c1,inconclusive: 39.2%
10,CCCC(NC(=O)CCc1c(C)c2cc3c(-c4ccccc4)coc3cc2oc1=O)C(=O)O (configuration not stated),inactive: -3.65%
11,CCN(CC)C(=O)COc1ccc2c(c1)C(=O)CC(C)(C)O2,inconclusive: 56.7%
12,CC(=O)NC(Cc1c[nH]c2ccccc12)C(=O)OCC(=O)Nc1ccc2c(c1)OCO2 (configuration not stated),inconclusive: 56.8%
13,CCOC(=O)Cc1csc(-n2sc3ccccc3c2=O)n1,inconclusive: 59.6%
14,CCOC(=O)C1CCCN(c2c(NCCc3cccc(C)c3)c(=O)c2=O)C1 (configuration not stated),inconclusive: 52.5%
15,COc1ccc(-n2nnnc2/C=C/Nc2cc(C(F)(F)F)ccc2OC)cc1,inactive: -7.87%
16,COc1cc(/C=N\Nc2ccc([N+](=O)[O-])cn2)ccc1OCC(=O)O,inconclusive: 38.7%
17,CC/C(=N/NC(=O)CNc1ccc(Cl)cc1C)c1ccccc1,inconclusive: 47.6%
18,Cc1nccn1-c1c([N+](=O)[O-])c(=O)n(C)c2ccccc12,inconclusive: 55.7%
19,Cn1ncc(Cl)c1C(=O)N1CCN(c2ncccn2)CC1,inconclusive: 45.1%

row,SMILES,inhibition
1,CCOC(=O)C1=C(C)NC(C)=C(C(=O)OCC)C1C(=O)OCC(N)=O,inconclusive: 37.7%
2,O=C(NC1CCS(=O)(=O)C1)/C(=C\c1ccco1)NC(=O)c1ccccc1 (configuration not stated),inconclusive: 34.8%
3,O=C(Nc1ccc2c(c1)OCO2)c1ccc2nc[nH]c2c1,inconclusive: 34.7%
4,Cc1ccc(C)c(NC(=O)C2CCC(C)(C(=O)O)C2(C)C)c1 (configuration not stated),inconclusive: 5.72%
5,COc1ccc(OC)c(/C=N/NC(=O)CCc2ccc(O)c(O)c2)c1,inconclusive: 47.4%
6,C=CCN1CCc2nc(N)sc2CC1,inconclusive: 39.8%
7,Cc1cc(C)c(NC(=O)c2ccoc2C)c(C)c1,inconclusive: 49.7%
8,COc1ccc(/C=C/C(=O)NC(=S)Nc2ccc(S(=O)(=O)Nc3cc(OC)ncn3)cc2)cc1,inconclusive: 56.7%
9,O=C(Nc1nc(-c2ccco2)c(-c2ccco2)s1)c1c(F)cccc1Cl,inconclusive: 38.7%
10,COC(=O)Cn1cnc2c1c(=O)n(C)c(=O)n2C,inactive: 1.38%
11,CCO[C@@H]1OC(C(=O)NC2CC2)=C[C@H](c2ccccc2)[C@H]1CCCO,inconclusive: 48.3%
12,O=C(Nc1ccc(O)cc1)c1cc2n(n1)C(C(F)(F)F)CC(c1ccco1)N2 (configuration not stated),inconclusive: 36%
13,CCOC(=O)c1c(CSc2ccsc2)n(C)c2cc(Br)c(O)c(CN(C)C)c12,inconclusive: 46.2%
14,COc1ccccc1NC(=O)/C(C#N)=C/C=C/c1ccco1,inconclusive: 52.7%
15,COc1cc(C)c(S(=O)(=O)N2CCN=C2c2ccccc2)cc1C,inconclusive: 37.9%
16,CCN(c1ccccc1)S(=O)(=O)c1ccc(Cl)c(NC(=O)COC(=O)c2cc(O)c3ccccc3c2O)c1,inconclusive: 35.5%
17,CN(C)Cc1cc2ccccc2c2c1COC2,inconclusive: 42.2%
18,O=c1cc(-c2ccc(O)cc2)oc2ccc(O)cc12,inactive: 28.2%
19,Cc1[nH]n(-c2ccccc2)c(=O)c1C=Nc1cnc2ccccc2c1,inconclusive: 35.9%

# Rewritten bar-delimited: entries from further up.
row | SMILES | inhibition
3 | O=C(Nc1ccc2c(c1)OCO2)c1ccc2nc[nH]c2c1 | inconclusive: 34.7%
11 | CCO[C@@H]1OC(C(=O)NC2CC2)=C[C@H](c2ccccc2)[C@H]1CCCO | inconclusive: 48.3%
